Results of single-concentration screens

From ChEMBL document CHEMBL3988442, “University of Dundee, Small-Polar-MMV Screening Library” (2021).

Results are given as percent effect.
The record does not define 0% and 100%; most values in the screen are far below 50% and negative numbers occur (in some assays of this library far below -100).
This is an unselected part of the compounds tested.
Two or more numbers in one place are separate tests of the same structure; such repeats can differ widely.
A dash means the value is not listed here; it may have been measured.

T. brucei: 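Whole-parasite assay of Trypanosoma brucei over 72 hours; the read-out is not stated. Concentration: 30 µM. The record gives no direction; compounds that gave an IC50 in retests scored well above the rest, so higher reads as stronger inhibition. Values scatter widely below zero; nearly all retest evidence comes from the higher of the two concentrations used. Of about 64,000 compounds tested this way, about 940 (1.5%) reached 50% or more in at least one test.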
Leishmania in macrophages: 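Cell assay of Leishmania donovani living inside macrophages; the read-out is not stated. Tested at 30 µM. Direction is inferred from retests: higher values go with stronger inhibition. Of about 69,000 compounds tested this way, about 1,000 (1.5%) reached 50% or more in at least one test.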

SMILES	T. brucei	Leishmania in macrophages
O=C(c1cccnc1N1CCN(Cc2ccoc2)CC1)N1CCCCC1	-17.14	-7.201
CCOC(=O)NCCC(=O)NC(C)(C)c1ccc2c(c1)OCCO2	-2.4	26.01
[H][C@]12CC[C@]([H])(CN(S(C)(=O)=O)C1)N(C(=O)c1csc(NC)n1)C2	7.322	50.94
O=C(c1cccnc1-n1cncn1)N1CCN(C2CCCC2)CC1	-37.31	10.24
CN(C)c1cc2c(nn1)CCN(C(=O)C1Cc3ccccc3S1)C2 (stereo unspecified)	1.888	36.28
Cc1noc(C)c1CN1C[C@@H](NC(=O)N(C)C)[C@H](C(C)C)C1	-30.23	12.61
COc1ccc(NCCC(=O)NCc2cccnc2N(C)C)cc1	-10.42	4.177
Cc1csc(C2CCCCN2C(=O)c2cc(C3CC3)[nH]n2)n1 (stereo unspecified)	-	15.86
O=C(c1ccc(C(F)(F)F)nc1)N1CCCC(n2cncn2)C1 (stereo unspecified)	-20.33	16.32
COc1ccc(-c2noc(C(N)CCSC)n2)cc1 (stereo unspecified)	0.9476	-25.69
COCCC(=O)N(Cc1cccnc1)CC1CCN(C2CCCC2)CC1	2.437	18.08
Cc1nnc(NC(=O)N2CCCCC2CCO)s1 (stereo unspecified)	-	-13.87
O=C(CCNc1ncccn1)NCc1csc(Br)c1	-17.78	-4.05
CC(C)(C)OC(=O)N1CCN(C(=O)CCn2cccn2)CC1	-	19.59
CC(C)n1cnnc1CN(C)C(=O)c1ccccc1-n1cncn1	-25.3	27.65
CC(=O)N1CCN(C(=O)c2sccc2Br)CC1	-75.94	-25.02
CN(CCN1CCCCCC1)Cc1cnc(N)nc1	-26.37	-18.07
COCC1COCCC12CCN(CCc1ccccc1)CC2.O=C(O)C(F)(F)F (stereo unspecified)	5.584	46.75
CCN(CC)S(=O)(=O)N1CCCC(c2cccc(C(=O)O)c2)C1 (stereo unspecified)	8.623	1.802
CC(C)(O)CCc1cccc(C(=O)NCc2cnn3cccnc23)c1	-47.23	1.978
Cc1cccnc1NC(=O)CC1(Cn2cnnn2)CCCCC1	17.43	5.288
CCc1nc2c(c(N3CCOCC3)n1)CCN(C(=O)N1CCCC1)CC2	-17.63	-15
Cc1nc[nH]c1CN(C)Cc1cnn(-c2ccc(F)cc2)c1	-35.44	15.05
O=C(Nc1ccccc1Cn1cccn1)N1CCCC(N2CCCC2)C1 (stereo unspecified)	-65.01	-14.79
Cc1ccnn1CCC(=O)N1CCN(C2CCc3ccccc3C2)CC1 (stereo unspecified)	-204.8	12.46
CC(C)NC(=O)N1CCC2(CC(=O)N(c3ccccc3)C2)C1 (stereo unspecified)	-25.82	5.731
Cc1cccc(C2(O)CCN(C(=O)c3ccc(N(C)C)cc3)CC2)c1C	-14.49	-13.95
CCCc1nc(C)cc(N2CCNC(C(=O)Nc3ccc(C)nc3)C2)n1 (stereo unspecified)	-14.66	-22.21
O=C(Cn1ncc(N2CCNCC2)cc1=O)NCCc1ccc(F)cc1	14.82	15.44
O=C(NCC(O)c1ccc(F)cc1)C1CCN(C2CCCCC2)CC1 (stereo unspecified)	-48.42	0.07524
O=C(O)C(F)(F)F.O=C(O)C(F)(F)F.[H][C@@]12CN(CCOC)CCO[C@]1([H])CN(Cc1cc(OC)cc(OC)c1)C2	-52.58	-17.06
Cc1nn(C)cc1C(=O)Nc1cccc(CN2CCC(CO)CC2)c1	-14.35	-13.37
COCCC(=O)N1CCOCC2(CCN(Cc3cccs3)C2)C1.O=C(O)C(F)(F)F (stereo unspecified)	-11.53	13.3
COCC1CCN(S(=O)(=O)c2ccc(C(=O)NCC(F)F)cc2)C1 (stereo unspecified)	23	23.57
COC(=O)c1cccn1C1CCN(C(=O)c2ccc(C)cc2O)CC1	10.41	19.38
CCc1cnc(NCc2nc(CSC)no2)nc1	-16.57	-17.83
O=C(NCCOc1ccccc1)NCC(O)c1cccs1 (stereo unspecified)	11.17	-35.11
CCOCC1CC2(CCN(C(=O)C3CC=CC3)CC2)CO1 (stereo unspecified)	-	18.3
Cc1cc(CN[C@@H](Cc2ccccc2)C(N)=O)c(C)s1	-16.75	0.4568
Cc1ccc(C(=O)N2CCC3(CCN3c3ncccn3)C2)cn1.O=C(O)C(F)(F)F (stereo unspecified)	-27.47	-18.38
CN(CC(=O)Nc1ccon1)S(=O)(=O)c1cc(Cl)ccc1Cl	-50.18	13.02
CCn1ncnc1C(C)NC(=O)CC1CCN(C(C)C)CC1 (stereo unspecified)	-171.5	-39.84
CN(c1nccc(-c2cnc3sc(Cl)cn3c2=O)n1)C1CCCCC1	-1.681	11 & -5.791
CCOCCC(=O)Nc1cccc(Cl)c1C(N)=O	-6.907	6.464
CC(C)Cc1cc(NC(=O)c2ccncc2)n(C)n1	-3.943	5.634
CCc1cccc(OCC(=O)N2CCCC(n3cncn3)C2)c1 (stereo unspecified)	-18.76	4.932
Cc1nnc2n1CCN(Cc1ncc(-c3ccc(Cl)cc3)o1)C2	-22.24	6.377
O=C(O)C(F)(F)F.O=C1CC2(CCN(CCO)C2)CN1c1cccc(F)c1 (stereo unspecified)	-67.55	-8.469
Cc1noc([C@@H]2C[C@H](NC(=O)Nc3ccccc3)CN2C)n1	-7.775	-35.52
O=C(N1CCCCC1)N1CCN(CC(O)c2ccc(F)cc2)CC1 (stereo unspecified)	-20.01	13.13
O=C(O)C1(O)CCN(c2ccnc3c(C(F)(F)F)cccc23)CC1	-22.25	37.19
CCc1cnc(CN(C)C2CCN(CCNS(=O)(=O)CC)C2)o1 (stereo unspecified)	-	43.21
CC(C)CN(CC(O)c1ccc(F)cc1)C(=O)c1cnsn1 (stereo unspecified)	9.839	-13.65
Cc1cc(=O)n(CCNC(=O)c2ccccc2Cl)cn1	-0.8457	33.1
Cl.Cl.O=C(CN1CCN(CC(O)C2CC2)CC1)NCc1ccccc1 (stereo unspecified)	-20.63	-10.5
CN(CC(=O)N1CCCC1c1ccccn1)Cc1ccccc1 (stereo unspecified)	-1.881	18.21
CC(C)c1noc(CCNC(=O)C2COc3ccccc3C2)n1 (stereo unspecified)	-11.64	-29.79
NS(=O)(=O)CCNC(=O)c1cc2cccc(F)c2o1	-61.35	17.99
CC(=O)NCC[C@H]1CC(C)(C)Oc2ccccc21	-13.65	14.36 & -2.013
O=C(c1cc2c(s1)CCC2)N1CCCCC1Cn1cccn1 (stereo unspecified)	15.94	7.806
Cc1nc(CN(C)C2CCCN(c3ccccc3)C2)no1 (stereo unspecified)	-11.16	1.363
O=C(CCc1cccc(F)c1F)N1CCCC(n2cncn2)C1 (stereo unspecified)	-0.2324	22.38
Cc1cc(N2CCCN(c3ccnc(C)c3)CC2)ccn1	8.906	25.39
CCc1nc(CN2CCN(C(=O)c3cncnc3CC)CC2)cs1	-	18.49
Cc1cccc(CN2CCCC3(CCN(c4cccnc4)C3=O)C2)n1 (stereo unspecified)	-13.41	2.47
CN1CCN(C(=O)N2CCCC(c3nccn3CC3CCC3)C2)CC1 (stereo unspecified)	-20.47	-24.32
Cc1ccc2c(c1)OC1(NC2=O)C(=O)N(C)c2ccccc21 (stereo unspecified)	-28.54	-11.74
COCCN1C(=O)CC[C@]12CC[C@@H](NCc1ccc(OC)cc1)CC2	-26.41	-43.86 & -4.154
CC(C)Cc1noc(COc2ccc(N(C)C(N)=O)cc2)n1	-11.72	21.67
CCCn1ncc(-c2ccnc(NC3CCCc4ccccc43)n2)c1C (stereo unspecified)	93.43	6.444
CC(C)c1csc(C2CCCN(C(=O)c3ccc(=O)n(C)c3)C2)n1 (stereo unspecified)	-75.95	-1.952
[H][C@@]12OCCN(S(=O)(=O)CC)[C@@]1([H])CC[C@H]2OCC1CCCC1	43.83	20.91
COc1ccccc1Oc1ncccc1CNC(=O)[C@H](N)CC(C)(C)C	0.9545	33.79
CCN(CCO)Cc1cn(-c2cccc(F)c2)nc1-c1ccc(C)o1	-15.5	18.58
NC(=O)NC(CC(=O)NCCc1ccc(F)cc1)c1ccccc1 (stereo unspecified)	-12.51	6.351
CN(C)CCNc1ccc(-c2nc(-c3ccccc3F)no2)cn1	6.605	51.45

Repeated from the top, 7 entries:

For O=C(c1cccnc1N1CCN(Cc2ccoc2)CC1)N1CCCCC1 the result was T. brucei: -17.14%; Leishmania in macrophages: -7.201%.
For CCOC(=O)NCCC(=O)NC(C)(C)c1ccc2c(c1)OCCO2 the result was T. brucei: -2.4%; Leishmania in macrophages: 26.01%.
For [H][C@]12CC[C@]([H])(CN(S(C)(=O)=O)C1)N(C(=O)c1csc(NC)n1)C2 the result was T. brucei: 7.322%; Leishmania in macrophages: 50.94%.
For O=C(c1cccnc1-n1cncn1)N1CCN(C2CCCC2)CC1 the result was T. brucei: -37.31%; Leishmania in macrophages: 10.24%.
For CN(C)c1cc2c(nn1)CCN(C(=O)C1Cc3ccccc3S1)C2 (stereo unspecified) the result was T. brucei: 1.888%; Leishmania in macrophages: 36.28%.
For Cc1noc(C)c1CN1C[C@@H](NC(=O)N(C)C)[C@H](C(C)C)C1 the result was T. brucei: -30.23%; Leishmania in macrophages: 12.61%.
For COc1ccc(NCCC(=O)NCc2cccnc2N(C)C)cc1 the result was T. brucei: -10.42%; Leishmania in macrophages: 4.177%.